We go through one compound from patent publication US9750724B2, “Use of an aromatase inhibitor for the treatment of hypogonadism and related diseases” (Mereo BioPharma 2 Limited, priority 2011, dated 2017).

What is called IC50 is the concentration that gives 50% inhibition.

For experiment [1], the target named is T1, human placental microsomal aromatase (Homo sapiens, UniProt P11511).
T1 construct: from tissue; host or cells: human placenta, microsomal fraction
T1 sequence (P11511 1-503): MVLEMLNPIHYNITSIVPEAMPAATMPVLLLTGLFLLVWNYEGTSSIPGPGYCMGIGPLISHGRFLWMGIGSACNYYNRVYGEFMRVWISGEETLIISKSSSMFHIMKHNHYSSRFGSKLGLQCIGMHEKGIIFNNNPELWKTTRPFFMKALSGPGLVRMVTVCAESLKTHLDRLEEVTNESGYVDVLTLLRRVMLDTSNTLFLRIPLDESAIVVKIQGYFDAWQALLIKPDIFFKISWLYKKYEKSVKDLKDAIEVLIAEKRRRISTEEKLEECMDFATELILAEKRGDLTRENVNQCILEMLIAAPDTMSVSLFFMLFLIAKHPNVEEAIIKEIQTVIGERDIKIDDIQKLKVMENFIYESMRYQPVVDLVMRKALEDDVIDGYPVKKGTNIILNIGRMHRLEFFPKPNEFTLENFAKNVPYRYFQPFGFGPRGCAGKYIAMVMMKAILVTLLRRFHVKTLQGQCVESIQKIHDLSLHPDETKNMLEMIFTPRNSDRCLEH
Put plainly: Aromatase inhibition in microsomal fraction of human placenta. The conditions noted are these: in vitro. Format: biochemical. How it is done:
In two different aromatase dependent experimental models, inhibition of androstenedione-induced uterine hypertrophy in rats and inhibition of DMBA-induced mammary tumors in rats, the ED50 was 0.003 mg/kg and 0.01 mg/kg, respectively.
4,4′-[fluoro-(1-H-1,2,4-triazol-1-yl)methylene]bisbenzonitrile is a potent and selective inhibitor of aromatase.

The target of experiment [2] is T1, human placental microsomal aromatase. The conditions noted are these: microsomal fraction of human placenta; Batzl-Hartmann et al, 1994; cited from earlier work.

Where two headings read alike, the source gives them in different places.

Take `N#Cc1ccc(C(F)(c2ccc(C#N)cc2)n2cncn2)cc1` [CGP47645, 4,4′-[fluoro-(1-H-1,2,4-triazol-1-yl)methylene]bisbenzonitrile]: the figures for the IC50 in experiment [1] and in experiment [2] were 6 nM and about 6.2 nM, respectively.
